Library screen at single concentrations

T. brucei: 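Whole-parasite assay of Trypanosoma brucei over 72 hours; the read-out is not stated. Compounds at 30 µM. Higher reads as stronger inhibition (inferred: compounds with an IC50 in retests scored well above the rest). Values scatter widely below zero; nearly all retest evidence comes from the higher of the two concentrations used. Size under these conditions: about 64,000 compounds, about 940 of them at 50% or above in at least one test.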
Toxoplasma: 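Assay of Toxoplasma gondii numbers, read through their beta-galactosidase reporter with a colour substrate. Compounds at 10 µM. The record gives no direction; the compounds picked for IC50 retests had high values, so higher reads as fewer parasites. Size under these conditions: about 67,000 compounds, about 260 of them at 50% or above in at least one test.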

The filed quantity is “Percent Effect” (%).
How 0% and 100% were set is not recorded. Most values in the screen are low, and negative values occur.
This is an unselected part of the compounds tested.

With CC(NCc1cccnc1)c1ccc(OCC(=O)NC2CC2)cc1 (stereo unspecified) the screen gave T. brucei: 6.867%; Toxoplasma: -2.531%. O=S(=O)(Cc1c(F)cccc1F)NCCOc1cccnc1 read T. brucei: 2.164%; Toxoplasma: 7.713%. With O=C(Nc1ccnc(OC2CCOC2)c1)c1cc(F)ccc1F (stereo unspecified) the screen gave T. brucei: -28.04%; Toxoplasma: -6.106%. Result for CC(=O)Nc1ccc(SCC(O)COCc2ccc3c(c2)OCO3)cc1 (stereo unspecified) was Toxoplasma: 13.64%.

O=C(NCCN1CCOCC1)c1ccc(-c2ccc(F)cc2)nc1O gave T. brucei: -10.57%; Toxoplasma: 5.03%. O=C(O)C(F)(F)F.[H][C@@]12COC[C@]1([H])[C@@H](OCC(=O)N(C)C)CN2Cc1ccc2c(c1)OCO2 gave T. brucei: -35.4%; Toxoplasma: 19.15%. With Cc1cc(N(C)Cc2ncc[nH]2)nc(-c2cccnc2)n1 the screen gave T. brucei: 22.03%; Toxoplasma: -0.4263%. O=C(NCCO)c1coc(CN2CCN(c3ccccc3F)CC2)n1 gave T. brucei: -18.95%.

COc1cccc(OCc2cc(C(=O)NC[C@H]3CCCN3)n[nH]2)c1 gave T. brucei: 9.245%; Toxoplasma: -2.384%. Cc1ccc2nc(CN3CCN(C4CCCC4)C(=O)C3)cc(O)c2c1 gave T. brucei: -22.72%; Toxoplasma: 2.492%. CCOc1ccc(CN2CC[C@@](C)(O)[C@@H](Cc3ccccc3)C2)cn1 read T. brucei: 15.05%; Toxoplasma: -6.273%. With O=C(O)C(F)(F)F.O=C(O)C(F)(F)F.c1csc(CN2Cc3[nH]nc(COCC4CC4)c3C2)c1 the screen gave T. brucei: -2.66%; Toxoplasma: -0.8189%.

With CN(C)CC1CN(Cc2nc(-c3ccccn3)no2)CCO1 (stereo unspecified) the screen gave T. brucei: -43.49%; Toxoplasma: 86.82%. Result for Cc1cc(NC(=O)c2ccc(Br)cc2F)n(C)n1 was T. brucei: -60.39%; Toxoplasma: 4.345%. Cn1ncc2c(=O)[nH]c(CN3CCCC3CC(C)(C)C)nc21 (stereo unspecified) gave T. brucei: 3.599%; Toxoplasma: -13.27%. CN(Cc1cc2n(n1)CCNC2)Cc1n[nH]c2c1CCC2 gave T. brucei: -37.02%; Toxoplasma: 16.84%.

Result for CN(Cc1nc(Cc2ccccc2F)no1)CC1Cc2ccccc2O1 (stereo unspecified) was T. brucei: -54.82%; Toxoplasma: 11.58%. Result for COCC(=O)N1CCC(=O)N(C2CCCC2)Cc2ccccc21 was T. brucei: -29.64%; Toxoplasma: -18.17%. Cc1ccc(SCC(=O)NS(=O)(=O)c2ccc3c(c2)OCCO3)cc1 gave T. brucei: -1.979%; Toxoplasma: -6.21%. Result for [H][C@@]12CN(C(=O)NCC)C[C@]1([H])OCC(=O)N2CC1CC1 was T. brucei: -2.381%; Toxoplasma: -0.6197%.

With NS(=O)(=O)NCc1cc(-c2ccc(C(F)(F)F)cc2)n[nH]1 the screen gave T. brucei: -1.395%; Toxoplasma: -9.979%. O=C(O)C(F)(F)F.[H][C@@]12CCN(C(=O)CC(C)C)CC[C@]1(C(=O)Nc1ccccc1)CCN2C read T. brucei: -17.6%; Toxoplasma: 95.11%. With CN1CCC(C)(CN(C)C(=O)c2ccc(CCC(C)(C)O)cc2)C1 (stereo unspecified) the screen gave T. brucei: -47.57%; Toxoplasma: 16.58%. CCN(C(C)c1cccc(O)c1)S(=O)(=O)c1cccnc1 (stereo unspecified) gave T. brucei: -32.27%; Toxoplasma: 0.0778%.

CC(C)NC(=O)C1Cc2nc(-c3ccsc3)sc2N1CC1CC1 (stereo unspecified) read T. brucei: 12.98%; Toxoplasma: 4.032%. Cc1cnn(CCCn2c(C)cc(C(F)(F)F)cc2=O)c1 read Toxoplasma: -31.13%. With Cc1ncncc1C(=O)N1CCOC(C(=O)NC2CCCC2)C1 (stereo unspecified) the screen gave T. brucei: -9.196%; Toxoplasma: -4.155%. Result for CCc1nnc(C2Cc3ccccc3CN2Cc2nc(C)no2)o1 (stereo unspecified) was Toxoplasma: 23.03%.

For CC(NC(=O)NCC(C)(C)C(N)=O)c1nc(-c2ccccc2)cs1 (stereo unspecified) the result was T. brucei: 10.65%; Toxoplasma: -2.955%. Result for CN(Cc1nc(CC2CC2)no1)CC1Cc2ccccc2O1 (stereo unspecified) was T. brucei: -14.58%; Toxoplasma: 6.566%. Result for CS(=O)(=O)CCC(=O)NC1(c2cccc(C(F)(F)F)c2)CCC1 was T. brucei: -31.25%; Toxoplasma: -5.614%. With COc1ccc(CN)c(OC(F)F)c1.Cl the screen gave Toxoplasma: 10.32%.

For CCNc1nc(C)c(C(=O)N2CCC(C(O)Cc3ccccc3)CC2)s1 (stereo unspecified) the result was T. brucei: 7.604%; Toxoplasma: -0.6952%. With COCC(C)(O)CNC(=O)COc1ccccc1OC (stereo unspecified) the screen gave T. brucei: -49.99%; Toxoplasma: 2.189%. For CCOc1cccc(CNc2ccccc2OC)c1O the result was T. brucei: -26.45%; Toxoplasma: 1.324%. For CC(=O)N1CCCCCC1C1CCN(Cc2nc(C3CC3)no2)CC1 (stereo unspecified) the result was Toxoplasma: -6.521%.

Result for COc1cccc(C(=O)NC(CC(=O)O)c2cccs2)c1OC (stereo unspecified) was T. brucei: -5.615%; Toxoplasma: -23.04%. Result for CC(C)C(=O)N1Cc2ccccc2CC2(CCCCN2C)C1 (stereo unspecified) was Toxoplasma: -2.303%. COc1ccccc1C1CCCN1CC(=O)N1CCC(C(N)=O)CC1 (stereo unspecified) gave T. brucei: -34.62%; Toxoplasma: -2.05%. Result for COc1ccnc(NC(=O)c2cscc2C)c1 was T. brucei: 88.82%; Toxoplasma: -7.36%.

For CC1=NOC2(CCN(Cc3c[nH]c4ccccc34)CC2)C1 the result was Toxoplasma: 27.21%. Result for CN(C)C(C(=O)N1Cc2ccccc2C1)c1ccccc1F (stereo unspecified) was T. brucei: -17.71%; Toxoplasma: -3.813%.

Repeated from the top, 5 entries:

{"compound": "CC(NCc1cccnc1)c1ccc(OCC(=O)NC2CC2)cc1", "stereo": "stereo unspecified", "T. brucei": 6.867, "Toxoplasma": -2.531}
{"compound": "O=S(=O)(Cc1c(F)cccc1F)NCCOc1cccnc1", "T. brucei": 2.164, "Toxoplasma": 7.713}
{"compound": "O=C(Nc1ccnc(OC2CCOC2)c1)c1cc(F)ccc1F", "stereo": "stereo unspecified", "T. brucei": -28.04, "Toxoplasma": -6.106}
{"compound": "CC(=O)Nc1ccc(SCC(O)COCc2ccc3c(c2)OCO3)cc1", "stereo": "stereo unspecified", "Toxoplasma": 13.64}
{"compound": "O=C(NCCN1CCOCC1)c1ccc(-c2ccc(F)cc2)nc1O", "T. brucei": -10.57, "Toxoplasma": 5.03}

Measurements from “University of Dundee, Small-Polar-MMV Screening Library” (2021), ChEMBL document CHEMBL3988442.